Experimental data published in publication PMC8104946.
No constants are given. Whether binding was seen depends on the method and setting. Binding seen in cells or lysates may run through a third protein. Some entries that bind do so weakly or less than the wild type. Where a sequence is shown, tags or fusion partners need not be part of it.

Molecular target: T1, CTPS-HA (Drosophila) (UniProt Q9VUL1)
T1 sequence: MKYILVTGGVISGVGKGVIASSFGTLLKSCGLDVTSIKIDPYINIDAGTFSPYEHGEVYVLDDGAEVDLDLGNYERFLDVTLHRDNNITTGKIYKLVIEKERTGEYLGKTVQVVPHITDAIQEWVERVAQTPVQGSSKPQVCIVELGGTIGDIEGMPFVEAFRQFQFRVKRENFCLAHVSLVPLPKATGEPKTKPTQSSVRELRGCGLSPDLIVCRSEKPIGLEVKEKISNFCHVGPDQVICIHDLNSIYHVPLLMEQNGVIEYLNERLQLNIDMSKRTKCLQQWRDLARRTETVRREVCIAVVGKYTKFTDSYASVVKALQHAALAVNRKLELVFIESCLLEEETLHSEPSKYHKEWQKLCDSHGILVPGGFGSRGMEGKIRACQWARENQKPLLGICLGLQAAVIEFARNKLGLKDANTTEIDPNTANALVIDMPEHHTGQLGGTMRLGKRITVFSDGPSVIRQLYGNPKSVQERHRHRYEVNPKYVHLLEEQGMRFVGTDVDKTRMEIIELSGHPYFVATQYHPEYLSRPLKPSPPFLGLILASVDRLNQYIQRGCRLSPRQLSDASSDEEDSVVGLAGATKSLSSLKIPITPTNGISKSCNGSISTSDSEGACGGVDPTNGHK
Experiment: co-IP; S2 cells 24 hours after transfection with CTPS-HA-T2A-Catsup-V5 or CTPS-HA-T2A-Pdcd4-V5; lysate on anti-HA magnetic beads or IgG bound Protein A/G magnetic beads overnight at 4 °C; blot with anti-V5

binding: binds
B1: Catsup-V5 (protein, UniProt Q9V3A4 1-449)
chain: MAKQVADYQCSKLQLYQKLALVVILGAVLFSLPALCAGQGNPSFKYSREANENFDPQKAPRAEHHHHHDHDHDHGHHHHGHDHDHDHDHGHDHGHHHHGHDHDHDHDHGHHHHGHDERHTKAKPDLDMSTIWLHSIGSTLLISAAPFVLLYIIPLDNSEAMKPRLKVLLAFASGGLLGDAFLHLIPHATHPHSHGEHGHDHGHDHHHHHDGEEHEHGHSHDMSIGLWVLGGIIAFLSVEKLVRILKGGHGGHGHSHGAPKPKPVPAKKKSSDKEDSGDGDKPAKPAKIKSKKPEAEPEGEVEISGYLNLAADFAHNFTDGLAIGASYLAGNSIGIVTTITILLHEVPHEIGDFAILIKSGCSRRKAMLLQLVTALGALAGTALALLGAGGGDGSAPWVLPFTAGGFIYIATVSVLPELLEESTKLKQSLKEIFALLTGVALMIVIAKFE
